Results: patent publication EP4814018A2
These are yes or no findings as the source states them, for the method shown. Some results given as binding are weak or reduced against the parent protein; the word gives no strength.

Target: human transferrin receptor (human) (UniProt P02786)
Test: SPR off-rate

binding: binds
B1: antibody comprising the heavy chain variable domain of SEQ ID NO: 24 and the light chain variable domain of SEQ ID NO: 37 (antibody, V domains shown)
VH: QSMQESGPGLVKPSQTLSLTCTVSGFSLSSYAMSWIRQHPGKGLEWIGYIWSGGSTDYASWAKSRVTISKTSTTVSLKLSSVTAADTAVYYCARRYGTSYPDYGDASGFDPWGQGTLVTVSS
VL: AIQLTQSPSSLSASVGDRVTITCRASQSISSYLAWYQQKPGKAPKLLIYRASTLASGVPSRFSGSGSGTDFTLTISSLQPEDFATYYCQQNYASSNVDNTFGGGTKVEIK
